# PubChem BioAssay AID504444 (National Center for Advancing Translational Sciences (NCATS), 2011)
# Among all 360,000 compounds or so, about 7,500 (2.1%) were called active. The inconclusive results got no clear call from the source; some entries with a clear call stand among them for comparison. Calls follow the shape of the dose curve; as a rule, active = well fitted inhibition curve with a large enough effect; inconclusive = small, poorly fitted or top-dose-only effect, or effect the other way; inactive = flat fitted curve, though single readings scatter. Potencies of inconclusive entries are doubtful fits and often do not repeat.
# Assay: Nrf2 qHTS screen for inhibitors; also: nearly all actives have a fitted effect of over 60% in size
# Settings: A549 ARE-Fluc reporter, luciferase luminescence, 18-24 h; activity change, negative = inhibition: at 46 µM (top of the series)
# Summary of the method: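 A549 ARE_Fluc cells, 5000/well, 5% FBS OPTI-MEM; compounds in dose-response, 18-24 h at 37 °C/5% CO2; CellTiter-Fluor viability read (Ex 405/Em 525), then BugLite luciferase luminescence = Nrf2 activity.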
# % is scaled to controls: 0 for no effect and ±100 for the full control effect; potency is read from the fitted curve at half-maximal effect.
SMILES,Potency,"activity change, negative = inhibition"
Cc1nc(CNc2ncnc3ccc(-c4ccc5c(c4)OCO5)cc23)cs1,"inconclusive: 29.1 µM [activator, single point]",–
Cc1ccc(S(=O)(=O)N2CCOCC2)cc1NC(=O)COC(=O)C1(C)CC1(Cl)Cl (configuration not stated),"inconclusive: 29.1 µM [falling, single point]",–
COc1ccc(CNC(=O)c2cnn3c(C(F)F)cc(C)nc23)cc1OC,"inconclusive: 18.4 µM [falling, single point]",–
CCCCN(C)S(=O)(=O)c1cc(Br)cc2c1N(C(=O)C1CC1)CC2,"inconclusive: 23.1 µM [falling, single point]",–
O=C(c1ccc(Cn2c(=O)[nH]c3ccccc3c2=O)cc1)N1CCN(c2ccc(F)cc2)CC1,active: 10.3 µM,–
Cc1ccc(C(=O)Nc2ncc3c(Cl)cccc3n2)cc1,"inconclusive: 29.1 µM [falling, single point]",–
CC(=O)N1CCOc2ccc(S(=O)(=O)N3CCN(c4cc(C)ccc4C)CC3)cc21,"inconclusive: 20.6 µM [falling, single point]",–
Cc1ccc(NC(=O)c2cc(NC(=O)c3ccco3)ccc2N2CCCCC2)cc1,"inconclusive: 8.2 µM [falling, partial curve, poor fit]",–
CC(C)(C)CC(=O)Nc1cccc(-c2cn3cccnc3n2)c1,"inconclusive: 13 µM [activator, partial curve]",–
Cc1c(Cl)cccc1NC(=O)c1ccc2c(c1)nnn2C1CCCC1,–,inactive: -1.06%
COc1ccc2[nH]c3c(c2c1)CCN1C(=O)C(CC(=O)NC(C)(C)C)C[C@H](C(=O)N2CCOCC2)[C@@]31CCC1CCCC1 (some centres not stated),"inconclusive: 18.4 µM [falling, partial curve, poor fit]",–
Cn1c(N)c(C(=O)CCl)c(=O)n(Cc2ccccc2)c1=O,–,inactive: 16.8%
COc1ccccc1NC(=O)CCCC(=O)OCC(=O)c1ccc(F)cc1,"inconclusive: 4.11 µM [activator, partial curve, poor fit]",–
O=C(CCS(=O)(=O)c1ccccc1)N(Cc1cccnc1)c1nc2c(Cl)cccc2s1,–,inactive: 6.84%
CCc1ccc(NC(=O)c2ccc3c(=O)n4nc(Nc5ccccc5C)sc4nc3c2)cc1,"inconclusive: 29.1 µM [falling, single point]",–
COc1ccc(Cl)cc1NC(=O)Cn1c(=O)n(Cc2nc(C)no2)c(=O)c2ccccc21,–,inactive: 23.8%
CCN(CC)S(=O)(=O)c1cccc(NC(=O)c2ccc(Br)cc2)c1,"inconclusive: 18.4 µM [falling, single point]",–
Cc1ccc(OCCCCCCN2CCNCC2)c(Br)c1,"inconclusive: 29.1 µM [activator, single point]",–
COc1ccc(C(=O)N/N=C/c2ccc(OC(=O)c3cccc4ccccc34)c([N+](=O)[O-])c2)cc1,–,inactive: -18.1%
CCc1cc2c(=O)[nH]c(-c3ccccn3)nc2s1,"inconclusive: 18.4 µM [falling, single point]",–
Cc1cccc(-n2nnc(C(=O)N3CCc4ccccc4C3)c2N)c1,"inconclusive: 0.58 µM [falling, full curve]",–
CCOC(=O)c1cc([N+](=O)[O-])sc1N,–,inactive: 0.488%
Cc1nc2ccc(S(=O)(=O)N(C)CC(=O)N3CCc4ccccc4C3)cc2s1,"inconclusive: 23.1 µM [falling, single point]",–

SMILES,Potency,"activity change, negative = inhibition"
CCNC(=S)N(CCc1c(C)[nH]c2ccc(C)cc12)Cc1cc(OC)c(OC)c(OC)c1,active: 18.4 µM,–
O=C1C(Cl)=C(NS(=O)(=O)c2ccc([N+](=O)[O-])cc2)C(=O)c2ccccc21,"inconclusive: 29.1 µM [falling, single point]",–
CCN1CCN(C(c2ccc(C(F)(F)F)cc2)c2ccc3cccnc3c2O)CC1 (configuration not stated),"inconclusive: 23.1 µM [falling, single point]",–
COCCn1c(C)cc(C2=NNC(=Nc3ccccc3)SC2)c1C,"inconclusive: 5.01 µM [activator, full curve, poor fit]",–
COc1ccc(F)cc1S(=O)(=O)n1cnc2ccccc21,"inconclusive: 4.11 µM [falling, full curve, poor fit]",–
CCOc1ccc(-c2nnc(SCC(=O)N3CCNC3=O)o2)cc1,"inconclusive: 1.3 µM [activator, full curve]",–
Cc1ccc(-c2ccc(/C=C(\C#N)C(N)=S)n2C)cc1,"inconclusive: 29.1 µM [activator, single point]",–
COc1ccc(C(=O)Nc2nc(-c3cccs3)c(NC(C)=O)s2)cc1,"inconclusive: 25.9 µM [falling, partial curve, poor fit]",–
O=C(Cn1sc2ccccc2c1=O)NC12CC3CC(CC(C3)C1)C2,–,inactive: 14.6%
CC(C)(C)Nc1ncnc2c1cnn2-c1ccccc1,"inconclusive: 1.03 µM [activator, full curve]",–
CCC(CC)COC(=O)C1=C(C)NC(=O)NC1c1ccccc1Br (configuration not stated),"inconclusive: 8.2 µM [falling, partial curve, poor fit]",–
O=C(NO)c1ccc(OC(F)F)cc1,"inconclusive: 13 µM [activator, partial curve]",–
COc1cc(/C=C2\SC(=Nc3ccccc3)N(CCc3c[nH]c4ccccc34)C2=O)ccc1OC(C)C(=O)O (configuration not stated),–,inactive: 2.24%
Cc1cnc(NC(=O)CSc2nnc(-c3ccccc3)o2)s1,"inconclusive: 25.9 µM [activator, single point]",–
CC(C)Cn1c(=O)c(C(=O)N/N=C/c2cccc(F)c2)c(O)c2ccccc21,"inconclusive: 16.4 µM [falling, single point]",–
O=C(c1ccccc1)c1ccc(N2CCOCC2)c(NC(=O)c2ccco2)c1,"inconclusive: 29.1 µM [falling, single point]",–
O=C(Nc1ccc2[nH]c(=O)[nH]c2c1)c1cccc([N+](=O)[O-])c1,–,inactive: -0.0979%
Cc1cc(C)nc(SCC(=O)Nc2ccc(S(=O)(=O)NC(C)(C)C)cc2)n1,"inconclusive: 32.6 µM [falling, single point]",–
S=C(NCc1ccco1)Nc1ccccc1,"inconclusive: 14.6 µM [falling, partial curve, poor fit]",–
CC1CCC(C(C)C)C(OC(=O)Cn2c(-c3ccccc3)[n+](C)c3ccccc32)C1 (configuration not stated),active: 3.66 µM,–
CCCCCNC(=O)c1cc2c(=O)n3ccccc3nc2n1C,active: 18.4 µM,–
COc1cccc(C(=O)Nc2ccccc2N2CCCC2)c1,–,inactive: 14.5%
Cc1ccc(N2CCN(/N=C/c3ccncc3)CC2)cc1,"inconclusive: 14.6 µM [falling, single point]",–

SMILES,Potency,"activity change, negative = inhibition"
Cc1ccc(OC(=O)c2oc3ccc(F)cc3c2C)c(C)c1,–,inactive: 6.2%
COc1cccc(NC(=O)Nc2cccn(Cc3ccc(C)cc3)c2=O)c1,"inconclusive: 29.1 µM [falling, single point]",–
Cc1cccc2c1NC(=O)C2=Nc1ccc(Cl)cc1,"inconclusive: 29.1 µM [activator, single point]",–
CCc1cccc(CC)c1NC(=S)/C(=C(\[O-])c1ccc(Cl)s1)[n+]1ccccc1,"inconclusive: 29.1 µM [falling, single point]",–
CCc1ccc(C2=C(C)C(N3CCC(C(=O)Nc4cccc(OC)c4)CC3)=NS2(=O)=O)cc1,"inconclusive: 1.3 µM [activator, full curve, poor fit]",–
Oc1ccc(/C=C/c2nc(-c3ccccc3O)n(-c3ccccc3)n2)c(O)c1,"inconclusive: 23.1 µM [falling, single point]",–
CCOc1ccc(NC(=O)CSc2nc(-c3cccs3)cc(C(F)(F)F)c2C#N)cc1,–,inactive: 0.508%
COC(=O)c1ccc(-c2ccc(C3C4C=CCC(C)C4C(=O)N3Cc3ccccc3)c(F)c2)cc1 (configuration not stated),active: 10.3 µM,–
[O-]/[N+](=C\c1ccco1)c1ccc(Cl)cc1,"inconclusive: 16.4 µM [activator, partial curve]",–
COc1ccc2[nH]c(=O)c(CN(C(=O)c3cccnc3)c3ccccc3C)cc2c1,"inconclusive: 23.1 µM [activator, single point]",–
COc1ccc(CCNc2oc(COc3ccccc3Cl)nc2C#N)cc1OC,"inconclusive: 23.1 µM [falling, single point]",–
CCc1nc(N(CC)CC)c2oc3ccccc3c2n1,–,inactive: -0.0568%
Cc1ccc(-c2noc(-c3ccccc3NC(=O)C3CC(=O)N(c4cccc(C)c4)C3)n2)cc1 (configuration not stated),–,inactive: 31.1%
Cc1cccc(C)c1NC(=O)C(c1ccc([N+](=O)[O-])cc1)N1CCCCC1 (configuration not stated),"inconclusive: 2.06 µM [falling, partial curve, poor fit]",–
Cc1ncsc1C(=O)Nc1nc2c(s1)CCCC2,"inconclusive: 1.16 µM [activator, partial curve]",–
COc1ccc(Br)cc1CN(C)CC(=O)Nc1cc(Cl)cc(Cl)c1,"inconclusive: 29.1 µM [falling, single point]",–
COc1ccccc1-c1nn2c(-c3cc(C)[nH]n3)nnc2s1,"inconclusive: 0.411 µM [falling, partial curve, poor fit]",–
COc1cc(NC(=O)Cn2nc(C(F)(F)F)c(Br)c2C)cc([N+](=O)[O-])c1,active: 23.1 µM,–
CC(C)(C)c1ccc(S(=O)(=O)N2CCN(CC(=O)NC(=O)NC3CCCCC3)CC2)cc1,"inconclusive: 23.1 µM [falling, single point]",–
COc1ccc(NC(=S)c2ccc3ccccc3n2)cc1,"inconclusive: 9.2 µM [activator, partial curve]",–
Cc1cc(/C=C\c2ccccc2)nc2ccccc12,"inconclusive: 18.4 µM [activator, partial curve]",–

# Given as tab-separated lines: six of the compounds above.
SMILES	Potency	activity change, negative = inhibition
COC(=O)c1ccc(-c2ccc(C3C4C=CCC(C)C4C(=O)N3Cc3ccccc3)c(F)c2)cc1 (configuration not stated)	active: 10.3 µM	–
[O-]/[N+](=C\c1ccco1)c1ccc(Cl)cc1	inconclusive: 16.4 µM [activator, partial curve]	–
COc1ccc2[nH]c(=O)c(CN(C(=O)c3cccnc3)c3ccccc3C)cc2c1	inconclusive: 23.1 µM [activator, single point]	–
COc1ccc(CCNc2oc(COc3ccccc3Cl)nc2C#N)cc1OC	inconclusive: 23.1 µM [falling, single point]	–
CCc1nc(N(CC)CC)c2oc3ccccc3c2n1	–	inactive: -0.0568%
Cc1ccc(-c2noc(-c3ccccc3NC(=O)C3CC(=O)N(c4cccc(C)c4)C3)n2)cc1 (configuration not stated)	–	inactive: 31.1%
